## Percent effect of library compounds

Chains of the proteins cited; added tags and fusions are not shown. Residues count along the entry.
UniProt A4I591, 1-473: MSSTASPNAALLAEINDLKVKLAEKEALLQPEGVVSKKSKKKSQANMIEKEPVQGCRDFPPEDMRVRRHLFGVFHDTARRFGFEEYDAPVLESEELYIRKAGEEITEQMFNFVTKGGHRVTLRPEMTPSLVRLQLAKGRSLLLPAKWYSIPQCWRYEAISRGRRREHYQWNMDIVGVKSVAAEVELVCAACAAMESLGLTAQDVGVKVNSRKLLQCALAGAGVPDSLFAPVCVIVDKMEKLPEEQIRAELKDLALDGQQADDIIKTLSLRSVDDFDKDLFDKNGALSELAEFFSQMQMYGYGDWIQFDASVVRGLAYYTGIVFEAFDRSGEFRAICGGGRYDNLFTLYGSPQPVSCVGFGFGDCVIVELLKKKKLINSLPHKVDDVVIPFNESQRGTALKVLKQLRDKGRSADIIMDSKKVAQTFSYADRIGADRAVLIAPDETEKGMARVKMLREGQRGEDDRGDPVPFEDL
UniProt P9WNZ1, whole entry: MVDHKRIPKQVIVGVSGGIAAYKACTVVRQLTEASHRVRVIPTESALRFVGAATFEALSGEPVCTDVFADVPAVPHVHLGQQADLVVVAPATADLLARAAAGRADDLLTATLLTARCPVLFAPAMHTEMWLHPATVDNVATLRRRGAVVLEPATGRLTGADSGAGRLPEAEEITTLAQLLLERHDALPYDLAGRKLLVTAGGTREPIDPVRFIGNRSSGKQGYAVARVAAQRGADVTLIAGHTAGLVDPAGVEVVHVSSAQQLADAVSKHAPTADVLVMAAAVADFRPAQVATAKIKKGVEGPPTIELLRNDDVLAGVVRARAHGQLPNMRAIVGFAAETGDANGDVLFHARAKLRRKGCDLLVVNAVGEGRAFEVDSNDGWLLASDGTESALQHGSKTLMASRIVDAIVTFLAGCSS

Measurements from “University of Dundee, Small-Polar-MMV Screening Library” (2021), ChEMBL document CHEMBL3988442.

LiHisRS: 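Enzyme assay of histidyl-tRNA synthetase; the read-out is not stated. Target: Histidine-tRNA ligase, Leishmania infantum (UniProt A4I591). Concentration: 30 µM. Direction is inferred from retests: higher values go with stronger inhibition. The assay is labelled LdHisRS but filed under L. infantum. Size under these conditions: about 69,000 compounds, about 410 of them at 50% or above in at least one test.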
Leishmania in macrophages: 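Cell assay of Leishmania donovani living inside macrophages; the read-out is not stated. Compounds at 30 µM. Higher reads as stronger inhibition (inferred: compounds with an IC50 in retests scored well above the rest). Size under these conditions: about 69,000 compounds, about 1,000 of them at 50% or above in at least one test.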
CoaBC: 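Coenzyme A biosynthesis protein CoaBC, Mycobacterium tuberculosis (UniProt P9WNZ1). Enzyme assay of CoaBC with a phosphate dye (Biomol Green) read at 650 nm. Tested at 30 µM. Higher reads as stronger inhibition, judged from the few compounds that gave an IC50. Most strong results did not repeat in a second test. Of about 67,000 compounds tested this way, about 40 (0.06%) reached 50% or more in at least one test.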

The filed quantity is “Percent Effect” (%). The record does not define 0% and 100%; most values in the screen are far below 50% and negative numbers occur (in some assays of this library far below -100). This is an unselected part of the compounds tested. Two or more numbers in one place are separate tests of the same structure; such repeats can differ widely.

COc1ccc(C2CC(=O)Nc3c2nc2n3CCCC2)cc1OC (centres unmarked) gave LiHisRS: 13.33%; Leishmania in macrophages: -33.86%; CoaBC: -11.84%. Result for O=C(CN1CCOC(Cn2cccn2)C1)NCc1ccccn1 (centres unmarked) was LiHisRS: 7.826%; Leishmania in macrophages: 19.83%; CoaBC: 3.944%. O=C(COC(=O)Cc1cccs1)NCc1cccc(NC(=O)C2CC2)c1 gave LiHisRS: -13.64%; Leishmania in macrophages: 17.53%; CoaBC: 9.516%. For Clc1ccccc1CN1CCc2nc(C3CCCCN3)ncc2C1 (centres unmarked) the result was LiHisRS: 13.87%; CoaBC: -7.513%. Result for Cc1nc(C)n(C2CCCN(C(=O)c3ccnc(N(C)C)c3)C2)n1 (centres unmarked) was LiHisRS: 9.174%; Leishmania in macrophages: 6.743%; CoaBC: -3.861%. Result for CN(Cc1cncs1)C1CCN(C(=O)OC(C)(C)C)CC1 was LiHisRS: 11.11%; Leishmania in macrophages: 10.92%; CoaBC: 2.941%.

Result for COc1ccc(COCC(O)CN(C)c2ccc(C)cc2C)cc1 (centres unmarked) was LiHisRS: 5.172%; Leishmania in macrophages: 1.399%; CoaBC: -3.212%. Cc1ccc(CN(CCCn2ccnc2)Cc2cnn(C)c2)s1 read LiHisRS: 11.58%; CoaBC: 12.17%. Cc1ncccc1NS(=O)(=O)Cc1cccc(F)c1 gave LiHisRS: 19.1%; Leishmania in macrophages: 12.92%; CoaBC: -8.073%. With NC(=O)c1ccc(-c2nc3c(c(=O)[nH]2)CCNC3)cc1 the screen gave LiHisRS: 6.452%; Leishmania in macrophages: 24.99%; CoaBC: 2.675%. CCc1ccc(CNC(=O)NCc2nnc3n2CCC3)s1 gave LiHisRS: 16.67%; Leishmania in macrophages: -22.63%; CoaBC: 2.999%. For [H][C@]12CCN(C(=O)C3CC=CC3)[C@@]1([H])CC[C@@H](COCC1CCOCC1)O2 the result was Leishmania in macrophages: 12.54%.

Cc1cnc(N2CC[C@@]3(O)CCCC[C@H]3C2)nc1-c1ccnn1C read LiHisRS: -3.333%; CoaBC: 1.071%. With O=C(C1CCOCC1)N1C[C@H]2CC[C@@H]1CN(C1Cc3ccccc3C1)C2 the screen gave LiHisRS: 0%; CoaBC: 3.863%. For CN(CCCOc1ccccc1Cl)C(=O)CN1CCCCCC1=O the result was LiHisRS: 21.24%; Leishmania in macrophages: 1.02%; CoaBC: 3.145%. With CN(C)CC(=O)N1CCC2(CC1)CN(c1ncccn1)CCO2.O=C(O)C(F)(F)F the screen gave Leishmania in macrophages: -6.599%. Cc1cc(C(F)(F)F)nc(C2COCCN2S(C)(=O)=O)n1 (centres unmarked) gave LiHisRS: 8.633%; Leishmania in macrophages: 14.43%; CoaBC: 1.914%. CCCNC(=O)c1nc2c(o1)CN(C(C)=O)C2 read LiHisRS: 8.824%; Leishmania in macrophages: 16.13%; CoaBC: 4.822%.

CCCc1cc(C(=O)N2CCCC2c2cccnc2)[nH]n1 (centres unmarked) read LiHisRS: 1.905%; Leishmania in macrophages: 25.97%; CoaBC: 13.16%. O=C(O)CCn1ccc2cc(Br)ccc21 gave LiHisRS: -7.609%; Leishmania in macrophages: 18.98%; CoaBC: -1.816%. CC(C)(C)C1SCC(=O)Nc2c1c(O)nn2C1CCCC1 (centres unmarked) gave LiHisRS: 5.263%; Leishmania in macrophages: -1.276% and 9.078%; CoaBC: 2.785%. CC(C)(C)OC(=O)N1CSC[C@@H]1C(=O)NCc1ccc(C#N)cc1 gave LiHisRS: 12.07%; Leishmania in macrophages: 10.53%; CoaBC: 4.069%. For CC(C)c1nnc2n1CCN(C(=O)c1cnc(C3CC3)s1)C2 the result was LiHisRS: 8.065%; Leishmania in macrophages: -36.19%; CoaBC: 2.056%. With Cc1ccc(-c2ncc(CN3CCN(C(=O)N(C)C)CC3)s2)o1 the screen gave LiHisRS: -7.463%; Leishmania in macrophages: 16.53%; CoaBC: -4.418%.

CS(=O)(=O)N1CC[C@@H]2OC(COCC(=O)N3CCCC3)CC[C@@H]21 (some centres unmarked) read LiHisRS: 6.452%; CoaBC: -4.809%.

2 of the entries, repeated:

Cc1nc(C)n(C2CCCN(C(=O)c3ccnc(N(C)C)c3)C2)n1 (centres unmarked) gave LiHisRS: 9.174%; Leishmania in macrophages: 6.743%; CoaBC: -3.861%.
CCc1ccc(CNC(=O)NCc2nnc3n2CCC3)s1 gave LiHisRS: 16.67%; Leishmania in macrophages: -22.63%; CoaBC: 2.999%.